Experimental data: PubChem BioAssay AID1671195 (Yale University, 2021)
The whole screen tested about 22,000 reagents; this is a random part of them. In the full data, about 1,510 (6.9%) were called active. 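Active includes knockdowns raising or lowering LDL uptake; positive z-scores mean more uptake, negative mean less.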 Entries without a mark were called inactive.

Test: 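Regulators of LDL receptor activity judged by labelled LDL uptake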 (primary screen)
Cells: human Huh7 hepatoma cells
Reagents: siRNA pool against human genes, 18 nM
Duration: about 2 to 2.5 days of knockdown, then 8 h LDL uptake
Challenge: DiI-labelled LDL at 30 µg/ml for 8 h, in lipoprotein-deficient serum medium
Measured: 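Per-cell DiI-LDL intensity by automated imaging; well means scaled to the plate median and given as a robust z-score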
Reading the numbers: robust z-score: higher = more LDL uptake after knockdown
Call rule: 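a gene counts as active if at least two replicate z-scores exceed ±2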

After knock-down of MACIR the results were robust z-score, replicate 1 = 0.268; robust z-score, replicate 2 = 0.79; robust z-score, replicate 3 = 0.276.
With knock-down of TRIP4, the screen gave robust z-score, replicate 1 = 1.03; robust z-score, replicate 2 = 0.0818; robust z-score, replicate 3 = -0.0219.
WDFY1 showed robust z-score, replicate 1 = 1.56; robust z-score, replicate 2 = 1.43; robust z-score, replicate 3 = 1.83.
After knock-down of DDX55, the screen gave robust z-score, replicate 1 = -1.63; robust z-score, replicate 2 = -1.61; robust z-score, replicate 3 = -1.61.
Knock-down of BOC gave: robust z-score, replicate 1 = -0.718; robust z-score, replicate 2 = -0.795; robust z-score, replicate 3 = -0.94.
B3GALT4 gave robust z-score, replicate 1 = -1.02; robust z-score, replicate 2 = -1.48; robust z-score, replicate 3 = -1.16.
SLC1A4 showed robust z-score, replicate 1 = -1.59; robust z-score, replicate 2 = -1.68; robust z-score, replicate 3 = -1.68.
After knock-down of SP110, the record shows robust z-score, replicate 1 = -0.864; robust z-score, replicate 2 = -1.15; robust z-score, replicate 3 = -0.604.
With knock-down of PRTG the results were robust z-score, replicate 1 = -0.0536; robust z-score, replicate 2 = -0.14; robust z-score, replicate 3 = -0.146.
After knock-down of PAPLN the results were robust z-score, replicate 1 = 2.81; robust z-score, replicate 2 = 0.99; robust z-score, replicate 3 = 1.45.
MUC19 scored robust z-score, replicate 1 = 0.287; robust z-score, replicate 2 = 0.566; robust z-score, replicate 3 = 0.34.
BET1L showed robust z-score, replicate 1 = -1.22; robust z-score, replicate 2 = -0.919; robust z-score, replicate 3 = -0.469.
Depletion of POLR2C gave: robust z-score, replicate 1 = -0.992; robust z-score, replicate 2 = -1.34; robust z-score, replicate 3 = -1.39.
Silencing of SLC14A1 gave: robust z-score, replicate 1 = 0.397; robust z-score, replicate 2 = 0.112; robust z-score, replicate 3 = 0.226.
Knock-down of HES7 came out at: robust z-score, replicate 1 = -1.19; robust z-score, replicate 2 = -1.81; robust z-score, replicate 3 = -1.5.
For ACTR5, the values are robust z-score, replicate 1 = 3.49 (active); robust z-score, replicate 2 = 1.8; robust z-score, replicate 3 = 2.76.
For KRTAP1-1, the entry reads robust z-score, replicate 1 = -1.23; robust z-score, replicate 2 = -1.61; robust z-score, replicate 3 = -1.57.
Against PCDHGC5, the values are robust z-score, replicate 1 = -0.245; robust z-score, replicate 2 = -0.34; robust z-score, replicate 3 = -0.129.
With knock-down of LOC441106 (retired record), the screen gave robust z-score, replicate 1 = -0.336; robust z-score, replicate 2 = -0.122; robust z-score, replicate 3 = -0.494.
For UBA1 the deposit lists robust z-score, replicate 1 = -0.0195; robust z-score, replicate 2 = 1.79; robust z-score, replicate 3 = 2.73.

Ordered by “robust z-score, replicate 3” (high to low): 2 of the entries above.
SLC14A1 — robust z-score, replicate 1 = 0.397; robust z-score, replicate 2 = 0.112; robust z-score, replicate 3 = 0.226
HES7 — robust z-score, replicate 1 = -1.19; robust z-score, replicate 2 = -1.81; robust z-score, replicate 3 = -1.5

More records:
Depletion of OR5M3 resulted in: robust z-score, replicate 1 = 0.956; robust z-score, replicate 2 = 1.97; robust z-score, replicate 3 = 1.69.
FAN1 gave robust z-score, replicate 1 = -1.18; robust z-score, replicate 2 = -0.839; robust z-score, replicate 3 = -1.13.
ZNF300P1 scored robust z-score, replicate 1 = 0.375; robust z-score, replicate 2 = 0.272; robust z-score, replicate 3 = 0.972.
After knock-down of URI1, the screen gave robust z-score, replicate 1 = -0.328; robust z-score, replicate 2 = -0.766; robust z-score, replicate 3 = 0.136.
After knock-down of EXOSC1 the results were robust z-score, replicate 1 = 0.056; robust z-score, replicate 2 = -2.03; robust z-score, replicate 3 = -0.485.
For UBXN7, the values are robust z-score, replicate 1 = -1.4; robust z-score, replicate 2 = -0.552; robust z-score, replicate 3 = -0.0414.
ERV3-1 showed robust z-score, replicate 1 = 2.18; robust z-score, replicate 2 = 1.14; robust z-score, replicate 3 = 1.61.
NRG2 scored robust z-score, replicate 1 = 0.963; robust z-score, replicate 2 = -0.323; robust z-score, replicate 3 = -0.268.
RPL13AP13 scored robust z-score, replicate 1 = -1.25; robust z-score, replicate 2 = -1.45; robust z-score, replicate 3 = -1.41.
UNC5D scored robust z-score, replicate 1 = 1.24; robust z-score, replicate 2 = 1.18; robust z-score, replicate 3 = 1.99.
